Counter-ions that a name gives are not always drawn. The list shows a part of the results. This data set is noisy: repeats of one test often differ as much as different tests do.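 ReNCell VM, a human fetal ventral-midbrain neural progenitor line, was differentiated without mitogens. Blinded raters scored images stained for doublecortin (early neurons) or tyrosine hydroxylase (dopaminergic neurons) against untreated wells (0 = no change). Scores were averaged across repeats and both raters, and compounds averaging 2 or more were selected as hits for retesting.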
test system: ReNCell VM; assay: dopaminergic neuron differentiation score (TH+ cell fraction vs untreated, manual image score) (score (0 to 3)); higher = more TH+ dopaminergic neuron differentiation; settings: library: Prestwick; 2 uM; 4 weeks; BDNF 10 ng/ml + GDNF 10 ng/ml

Dopaminergic neuron differentiation score, inactive:
CNC(=C[N+](=O)[O-])NCCSCc1csc(CN(C)C)n1 [Nizatidine] 0, Cc1cc(-n2c(=O)[nH]c(=O)n(C)c2=O)ccc1Oc1ccc(SC(F)(F)F)cc1 [Toltrazuril] 0, CCCOc1ccc2[nH]c(NC(=O)OC)nc2c1 [Oxibendazol] 0, CCc1nc(N)nc(N)c1-c1ccc(Cl)cc1 [Pyrimethamine] 0, NS(=O)(=O)c1cc2c(cc1Cl)N=C(CSCc1ccccc1)NS2(=O)=O [Benzthiazide] 0, O=C(O)c1cn(-c2ccc(F)cc2)c2cc(N3CCNCC3)c(F)cc2c1=O [Sarafloxacin] 0, COc1cc(OC)c(C(=O)CCCN2CCCC2)c(OC)c1 [Buflomedil hydrochloride] 0, CCC(C)n1ncn(-c2ccc(N3CCN(c4ccc(OCC5COC(Cn6cncn6)(c6ccc(Cl)cc6Cl)O5)cc4)CC3)cc2)c1=O (stereo unspecified) [Itraconazole] 0

same assay, conditions: library: Spectrum; 2 uM; 4 weeks; BDNF 10 ng/ml + GDNF 10 ng/ml

Dopaminergic neuron differentiation score, inactive:
COc1ccccc1OCCNCC(O)COc1cccc2[nH]c3ccccc3c12 (stereo unspecified) 0, CCCCN(CCCC)CCCOC(=O)c1ccc(N)cc1 0, COc1ccc(C2C(=O)c3ccccc3C2=O)cc1 0, OC[C@H]1O[C@H](O[C@H]2[C@H](O)[C@@H](O)C(O)O[C@@H]2CO)[C@H](O)[C@@H](O)[C@@H]1O (stereo partly specified) 0, O=C(O)c1cc2cc(F)ccc2[nH]1 0, COc1ccc(-c2cc(=O)c3c(OC)c(OC)c(OC)c(OC)c3o2)cc1 0, C=NC(C(=O)NC1C(=O)N2C1SC(C)(C)C2C(=O)O)c1ccccc1 (stereo unspecified) 0, CCOc1ccc2nc(S(N)(=O)=O)sc2c1 0, CO[C@H]1C[C@H](O[C@H]2[C@H](C)[C@@H](O[C@@H]3O[C@H](C)C[C@H](N(C)C)[C@H]3OC(C)=O)[C@@H](C)C[C@@]3(CO3)C(=O)[C@H](C)[C@@H](OC(C)=O)[C@@H](C)[C@@H](C)OC(=O)[C@@H]2C)O[C@@H](C)[C@@H]1OC(C)=O 0, CN(C)C(=N)NC(=N)N 0, CC(O)(P(=O)(O)O)P(=O)(O)O 0, CS(=O)(=O)c1ccc([C@@H](O)[C@@H](CO)NC(=O)C(Cl)Cl)cc1 0, CC(=O)Nc1ccc(OC(=O)c2ccccc2O)cc1 0, CO/N=C(\C(=O)N[C@@H]1C(=O)N2C(C(=O)O)=C(CSc3nc(=O)c(O)nn3C)CS[C@H]12)c1csc(N)n1 0, COc1ccc(-c2coc3cc(O)ccc3c2=O)c(OC)c1 0, OC(CCN1CCCCC1)(c1ccccc1)C1CC2C=CC1C2 (stereo unspecified) 0, COc1ccc2c(c1OC)C(=O)O[C@@H]2[C@H]1c2c(cc3c(c2OC)OCO3)CCN1C 0

same assay, conditions: library: Tocriscreen; 2 uM; 4 weeks; BDNF 10 ng/ml + GDNF 10 ng/ml

Dopaminergic neuron differentiation score, inactive:
C[C@@H](CN1CCC(n2c(=O)[nH]c3cc(Cl)ccc32)CC1)NC(=O)c1ccc2ccccc2c1 0, Brc1c(NC2=NCCN2)ccc2nccnc12 [UK 14,304 tartrate] 0, CCN(CC)CCCC(C)Nc1nc(C)cc(Nc2ccc3nc(C)cc(N)c3c2)n1 (stereo unspecified) 0, Nc1nc2c(ccc3ccccc32)s1 0, O=C1C(=O)N(Cc2ccc(Cl)c(Cl)c2)c2ccccc21 [Apoptosis Activator 2] 0, COC(=O)Nc1ccc2[nH]cc(CCNC(C)=O)c2c1 0
